# Source: publication PMC6499331, “Transcriptional gene silencing requires dedicated interaction between HP1 protein Chp2 and chromatin remodeler Mit1” (Genes & Development, 2019)
# These are yes or no findings as the source states them, for the method shown. For some of these results: Binding seen in cells or lysates may run through a third protein. Some binding calls cover weakened binding; strength is not graded here. Sequences can lack the tags named with a protein.
# Experiments:
# [1] = biological target: T1, Mit1 (OneStrep-tagged, coexpressed in insect cells) (S. pombe) (UniProt Q9P793); test: pull-down; proteins coexpressed in Sf9 cells; OneStrep-tagged Mit1 constructs captured from the lysate on StrepTactin beads, 1 h at 4°C; 400 mM KCl, 100 mM Tris pH 7.5, 2 mM Mg-acetate, 5 mM β-mercaptoethanol, 0.1% NP40; eluted with desthiobiotin; Clr1MID included to stabilize the Mit1 C terminus
# T1 sequence: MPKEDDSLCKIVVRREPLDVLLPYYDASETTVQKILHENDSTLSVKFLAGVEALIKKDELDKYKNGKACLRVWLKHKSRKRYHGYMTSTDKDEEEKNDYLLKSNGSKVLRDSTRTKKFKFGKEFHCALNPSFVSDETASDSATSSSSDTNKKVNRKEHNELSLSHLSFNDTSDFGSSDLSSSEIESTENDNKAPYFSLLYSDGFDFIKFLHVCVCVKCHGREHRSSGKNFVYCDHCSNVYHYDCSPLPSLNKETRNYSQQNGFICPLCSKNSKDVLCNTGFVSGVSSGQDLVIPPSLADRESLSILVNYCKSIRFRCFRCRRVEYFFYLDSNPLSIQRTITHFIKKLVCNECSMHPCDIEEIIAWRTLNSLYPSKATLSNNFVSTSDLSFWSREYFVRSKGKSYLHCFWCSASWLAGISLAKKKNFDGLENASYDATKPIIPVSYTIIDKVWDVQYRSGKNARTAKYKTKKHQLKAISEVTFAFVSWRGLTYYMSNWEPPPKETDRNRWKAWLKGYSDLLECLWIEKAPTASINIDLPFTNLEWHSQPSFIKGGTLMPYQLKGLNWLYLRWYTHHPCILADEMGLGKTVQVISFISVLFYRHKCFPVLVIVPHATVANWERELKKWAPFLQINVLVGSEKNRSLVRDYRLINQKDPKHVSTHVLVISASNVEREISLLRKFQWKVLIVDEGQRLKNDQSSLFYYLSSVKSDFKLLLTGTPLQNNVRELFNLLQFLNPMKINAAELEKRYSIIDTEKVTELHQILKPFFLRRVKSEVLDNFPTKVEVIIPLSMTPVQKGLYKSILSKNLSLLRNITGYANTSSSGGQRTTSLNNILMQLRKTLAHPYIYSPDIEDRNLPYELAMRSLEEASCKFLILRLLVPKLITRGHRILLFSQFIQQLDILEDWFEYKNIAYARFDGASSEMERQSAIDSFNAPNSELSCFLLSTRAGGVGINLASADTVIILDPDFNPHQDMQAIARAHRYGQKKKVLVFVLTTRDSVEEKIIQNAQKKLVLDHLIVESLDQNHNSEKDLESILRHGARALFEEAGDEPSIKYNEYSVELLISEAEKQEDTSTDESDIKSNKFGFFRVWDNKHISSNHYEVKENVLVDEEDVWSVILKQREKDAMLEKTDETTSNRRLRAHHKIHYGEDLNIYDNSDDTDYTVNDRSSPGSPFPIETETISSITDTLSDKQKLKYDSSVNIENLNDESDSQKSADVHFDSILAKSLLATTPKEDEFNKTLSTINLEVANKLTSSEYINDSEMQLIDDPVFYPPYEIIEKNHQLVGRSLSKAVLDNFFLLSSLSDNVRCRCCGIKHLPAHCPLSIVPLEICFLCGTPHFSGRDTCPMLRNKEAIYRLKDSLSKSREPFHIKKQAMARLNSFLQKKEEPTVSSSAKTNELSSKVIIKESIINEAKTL
# [2] = biological target: T2, Mit1(1-81), Chp2 interaction interface (CII), tag removed (S. pombe) (UniProt Q9P793); test: crystal structure; Mit1(1-81)–Chp2(316-380), coexpressed in E. coli, purified as a complex; hanging drops at 18°C, 2.4 M sodium malonate pH 7, 3% 1,6-hexanediol; 1.6 Å; both purified
# T2 sequence: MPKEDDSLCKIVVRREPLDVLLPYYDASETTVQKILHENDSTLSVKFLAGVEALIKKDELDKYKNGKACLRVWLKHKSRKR
# [3] = biological target: T3, Mit1-13myc (endogenously tagged) (S. pombe) (UniProt Q9P793); test: co-IP; S. pombe lysate of endogenously tagged strains; Mit1-13myc captured on Myc-Trap_MA resin, 1 h; 50 mM HEPES pH 7.5, 300 mM NaCl, 1 mM EDTA, 5 mM CHAPS, 10 mM DTT
# T3 sequence: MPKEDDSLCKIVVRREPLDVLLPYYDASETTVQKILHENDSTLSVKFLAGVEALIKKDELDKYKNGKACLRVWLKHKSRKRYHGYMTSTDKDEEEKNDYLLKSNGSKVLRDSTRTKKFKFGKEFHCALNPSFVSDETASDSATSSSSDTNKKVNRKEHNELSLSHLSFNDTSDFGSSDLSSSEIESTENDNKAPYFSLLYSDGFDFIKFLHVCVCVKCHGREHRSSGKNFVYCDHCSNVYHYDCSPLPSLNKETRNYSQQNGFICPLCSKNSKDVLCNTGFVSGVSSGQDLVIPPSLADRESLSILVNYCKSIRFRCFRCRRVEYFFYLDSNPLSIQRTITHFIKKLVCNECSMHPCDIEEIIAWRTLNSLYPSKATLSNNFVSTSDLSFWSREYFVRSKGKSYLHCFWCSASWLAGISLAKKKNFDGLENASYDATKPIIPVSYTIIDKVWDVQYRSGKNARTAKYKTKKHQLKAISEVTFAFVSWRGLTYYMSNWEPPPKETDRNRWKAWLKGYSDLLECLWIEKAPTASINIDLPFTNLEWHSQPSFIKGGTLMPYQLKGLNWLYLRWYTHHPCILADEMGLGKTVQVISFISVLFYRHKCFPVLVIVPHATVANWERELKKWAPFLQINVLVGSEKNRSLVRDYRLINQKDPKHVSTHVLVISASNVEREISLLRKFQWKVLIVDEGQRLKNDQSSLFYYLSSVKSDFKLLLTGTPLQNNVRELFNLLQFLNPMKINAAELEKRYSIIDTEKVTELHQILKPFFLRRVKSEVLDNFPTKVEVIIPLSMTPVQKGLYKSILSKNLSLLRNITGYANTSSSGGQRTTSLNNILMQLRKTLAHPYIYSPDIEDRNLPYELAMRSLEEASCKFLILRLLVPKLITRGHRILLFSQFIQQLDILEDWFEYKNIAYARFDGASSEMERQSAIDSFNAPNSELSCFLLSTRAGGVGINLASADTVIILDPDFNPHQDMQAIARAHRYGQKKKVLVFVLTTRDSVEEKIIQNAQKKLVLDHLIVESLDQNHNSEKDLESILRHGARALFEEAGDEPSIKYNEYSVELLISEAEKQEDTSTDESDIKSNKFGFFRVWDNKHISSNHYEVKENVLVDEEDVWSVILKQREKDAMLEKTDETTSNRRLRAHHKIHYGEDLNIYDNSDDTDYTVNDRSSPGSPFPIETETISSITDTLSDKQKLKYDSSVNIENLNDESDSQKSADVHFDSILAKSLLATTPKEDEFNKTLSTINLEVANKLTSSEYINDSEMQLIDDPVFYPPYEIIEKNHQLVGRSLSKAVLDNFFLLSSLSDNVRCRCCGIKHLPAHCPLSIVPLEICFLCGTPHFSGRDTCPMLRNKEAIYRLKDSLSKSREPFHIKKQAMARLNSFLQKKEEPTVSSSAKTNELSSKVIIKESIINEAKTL
# [4] = biological target: T4, mit1ΔN-13myc (N-terminal 200 amino acids deleted) (S. pombe) (UniProt Q9P793); test: as above
# T4 sequence: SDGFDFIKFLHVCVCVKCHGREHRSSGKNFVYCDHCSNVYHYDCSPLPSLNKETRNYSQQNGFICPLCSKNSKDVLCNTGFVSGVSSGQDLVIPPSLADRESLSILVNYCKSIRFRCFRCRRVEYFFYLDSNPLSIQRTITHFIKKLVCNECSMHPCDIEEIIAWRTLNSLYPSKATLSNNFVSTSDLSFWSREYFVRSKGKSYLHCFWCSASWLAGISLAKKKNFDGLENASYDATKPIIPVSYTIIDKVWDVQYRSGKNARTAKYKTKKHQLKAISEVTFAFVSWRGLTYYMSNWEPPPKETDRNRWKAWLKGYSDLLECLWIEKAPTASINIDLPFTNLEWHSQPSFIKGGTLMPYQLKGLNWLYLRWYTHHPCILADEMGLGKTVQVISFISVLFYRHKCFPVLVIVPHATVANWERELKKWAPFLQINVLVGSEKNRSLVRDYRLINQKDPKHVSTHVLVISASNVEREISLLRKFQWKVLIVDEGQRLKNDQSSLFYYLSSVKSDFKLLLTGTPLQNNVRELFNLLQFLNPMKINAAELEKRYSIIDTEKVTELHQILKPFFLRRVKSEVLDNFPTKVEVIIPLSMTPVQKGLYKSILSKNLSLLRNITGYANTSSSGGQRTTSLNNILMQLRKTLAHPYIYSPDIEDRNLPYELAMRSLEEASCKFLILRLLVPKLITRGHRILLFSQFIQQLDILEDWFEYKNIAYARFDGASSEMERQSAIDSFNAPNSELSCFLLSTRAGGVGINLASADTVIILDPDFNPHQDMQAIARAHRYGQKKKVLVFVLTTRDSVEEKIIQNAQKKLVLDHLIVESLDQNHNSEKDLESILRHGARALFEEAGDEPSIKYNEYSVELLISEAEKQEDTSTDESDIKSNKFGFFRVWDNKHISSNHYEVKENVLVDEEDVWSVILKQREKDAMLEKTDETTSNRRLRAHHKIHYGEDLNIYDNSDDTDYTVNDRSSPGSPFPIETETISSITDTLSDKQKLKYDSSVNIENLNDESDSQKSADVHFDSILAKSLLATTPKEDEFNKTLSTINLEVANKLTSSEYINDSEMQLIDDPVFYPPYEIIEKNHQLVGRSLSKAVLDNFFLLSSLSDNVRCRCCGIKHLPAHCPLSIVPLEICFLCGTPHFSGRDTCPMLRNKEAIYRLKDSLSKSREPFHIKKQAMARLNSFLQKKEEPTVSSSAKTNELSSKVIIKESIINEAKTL
binder,measurement,setting,value
"Chp2 (T7-tagged, coexpressed in insect cells) (protein, UniProt O42934 1-380) MVKSADLDLMNSIISESDENFSPPPFTVEEAENSINNKSSTASLESPQNGSWHPSLYGLSVPEKTHIQNSLDLYSHGNSGSQKTHNVSFSCEIRKVKSSKLSPISNMEDSEDKKEEDESSSYKNEFKSSSSASVSSNFEKTSGSDDHNSQSPVPLNEGFEYIASSGSEDKNSDEEFAVEMILDSRMKKDGSGFQYYLKWEGYDDPSDNTWNDEEDCAGCLELIDAYWESRGGKPDLSSLIRLTRSRARSSNEASYVEKDESSNSDDSISYKRRRSRNAANRITDYVDSDLSESSMKEKQSKIEKYMKSDKSSKNFKPPFQKKSWEDLVDCVKTVQQLDNGKLIAKIKWKNGYVSTHDNIIIHQKCPLKIIEYYEAHIKFT",binding,[1],binds
"Chp2CSD, Chp2(316-380), untagged, coexpressed with Mit1 fragments (domain or fragment, S. pombe, UniProt O42934 316-380, looked up, Chp2, S. pombe, chromoshadow domain, residues 316-380; Cloned without tag into pACE2 for coexpression; Limits 316-380 are printed for the crystallised complex; also called chromo shadow domain of Chp2; Chp2CSD2; source: E. coli BL21(DE3) or Rosetta (DE3), coexpressed with Mit1 fragments, purified as a complex) KPPFQKKSWEDLVDCVKTVQQLDNGKLIAKIKWKNGYVSTHDNIIIHQKCPLKIIEYYEAHIKFT",binding,[2],binds
"6xFlag-Chp2 (endogenously tagged) (protein, UniProt O42934 1-380) MVKSADLDLMNSIISESDENFSPPPFTVEEAENSINNKSSTASLESPQNGSWHPSLYGLSVPEKTHIQNSLDLYSHGNSGSQKTHNVSFSCEIRKVKSSKLSPISNMEDSEDKKEEDESSSYKNEFKSSSSASVSSNFEKTSGSDDHNSQSPVPLNEGFEYIASSGSEDKNSDEEFAVEMILDSRMKKDGSGFQYYLKWEGYDDPSDNTWNDEEDCAGCLELIDAYWESRGGKPDLSSLIRLTRSRARSSNEASYVEKDESSNSDDSISYKRRRSRNAANRITDYVDSDLSESSMKEKQSKIEKYMKSDKSSKNFKPPFQKKSWEDLVDCVKTVQQLDNGKLIAKIKWKNGYVSTHDNIIIHQKCPLKIIEYYEAHIKFT",binding,[3],binds
same,binding,[4],no binding
